From paper PMC9810533
These are yes or no findings as the source states them, for the method shown. In cells and extracts the contact can be indirect. Some results given as binding are weak or reduced against the parent protein; the word gives no strength.

The chains behind the UniProt entries cited, without tags or fusion partners. Where a name states a change or a piece, a line headed by the entry shows the natural chain unless it says otherwise. Residues count along the entry.
UniProt P06332, residues 27-457: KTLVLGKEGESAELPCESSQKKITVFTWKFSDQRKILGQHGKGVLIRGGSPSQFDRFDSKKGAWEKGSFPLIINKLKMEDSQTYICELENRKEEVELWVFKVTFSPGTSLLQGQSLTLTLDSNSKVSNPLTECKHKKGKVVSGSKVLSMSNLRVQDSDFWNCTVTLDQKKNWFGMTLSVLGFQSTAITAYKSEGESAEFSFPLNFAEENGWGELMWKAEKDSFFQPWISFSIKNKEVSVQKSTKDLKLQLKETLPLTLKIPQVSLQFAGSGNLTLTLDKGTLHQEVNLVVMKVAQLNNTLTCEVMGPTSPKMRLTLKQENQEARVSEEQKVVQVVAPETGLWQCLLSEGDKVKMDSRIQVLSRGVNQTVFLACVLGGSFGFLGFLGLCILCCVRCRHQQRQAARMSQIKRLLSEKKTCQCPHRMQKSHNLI
UniProt P01731: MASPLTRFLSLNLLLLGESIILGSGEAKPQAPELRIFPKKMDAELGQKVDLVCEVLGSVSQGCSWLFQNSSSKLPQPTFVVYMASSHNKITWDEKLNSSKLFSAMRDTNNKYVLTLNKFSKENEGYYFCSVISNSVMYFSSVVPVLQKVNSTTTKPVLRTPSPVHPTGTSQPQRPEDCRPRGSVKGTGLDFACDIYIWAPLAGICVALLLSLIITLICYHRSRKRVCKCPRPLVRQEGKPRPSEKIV
UniProt P10300: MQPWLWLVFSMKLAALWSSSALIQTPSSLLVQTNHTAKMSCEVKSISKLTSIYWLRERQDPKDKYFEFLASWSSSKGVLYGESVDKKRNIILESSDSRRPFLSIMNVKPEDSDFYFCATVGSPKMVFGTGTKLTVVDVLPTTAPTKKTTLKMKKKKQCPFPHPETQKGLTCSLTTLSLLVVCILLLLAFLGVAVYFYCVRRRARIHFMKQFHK
UniProt P06240: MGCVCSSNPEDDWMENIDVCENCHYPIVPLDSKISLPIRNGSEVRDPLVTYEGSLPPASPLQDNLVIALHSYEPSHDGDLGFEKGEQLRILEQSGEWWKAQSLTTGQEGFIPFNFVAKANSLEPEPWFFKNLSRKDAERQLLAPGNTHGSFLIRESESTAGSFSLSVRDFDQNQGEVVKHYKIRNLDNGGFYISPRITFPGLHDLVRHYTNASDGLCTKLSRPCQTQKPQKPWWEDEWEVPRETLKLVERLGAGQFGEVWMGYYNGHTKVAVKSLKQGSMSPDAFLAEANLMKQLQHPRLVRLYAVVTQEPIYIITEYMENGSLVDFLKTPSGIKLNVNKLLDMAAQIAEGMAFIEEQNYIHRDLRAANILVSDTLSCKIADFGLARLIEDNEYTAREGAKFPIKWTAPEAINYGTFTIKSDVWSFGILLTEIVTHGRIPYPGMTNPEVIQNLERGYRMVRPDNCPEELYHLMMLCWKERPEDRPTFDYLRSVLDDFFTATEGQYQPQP

Key:
[1] = molecular target: CD4 co-receptor (mouse) (mouse (endogenous in thymocytes)) (UniProt P06332); assay: co-IP; live total thymocytes (2-3 x 10^7) of Lck-variant mice stained with biotinylated anti-CD4 (GK1.5) or anti-CD8β (53-5.8), lysed in 1% lauryl-β-D-maltoside, 30 mM Tris pH 7.4, 120 mM NaCl, 2 mM KCl, 10% glycerol; Streptavidin Mag Sepharose 2 h at 4 °C; immunoblot with anti-LCK (3A5) and anti-CD4 or anti-CD8α
[2] = molecular target: CD8 co-receptor (mouse CD8αβ) (mouse (endogenous in thymocytes)) (UniProt P01731+P10300); assay: as above

binding [1]	binding [2]	Substance
no binding	no binding	LCK C20A.C23A (mouse, knock-in) (from UniProt P06240 1-509) (enzyme)
binds	binds	LCK, wild type (mouse) (from UniProt P06240 1-509) (enzyme)
